In paper PMC4352044:

Biological target: T1, Scc3-6HA (budding yeast) (UniProt P40541)
T1 sequence: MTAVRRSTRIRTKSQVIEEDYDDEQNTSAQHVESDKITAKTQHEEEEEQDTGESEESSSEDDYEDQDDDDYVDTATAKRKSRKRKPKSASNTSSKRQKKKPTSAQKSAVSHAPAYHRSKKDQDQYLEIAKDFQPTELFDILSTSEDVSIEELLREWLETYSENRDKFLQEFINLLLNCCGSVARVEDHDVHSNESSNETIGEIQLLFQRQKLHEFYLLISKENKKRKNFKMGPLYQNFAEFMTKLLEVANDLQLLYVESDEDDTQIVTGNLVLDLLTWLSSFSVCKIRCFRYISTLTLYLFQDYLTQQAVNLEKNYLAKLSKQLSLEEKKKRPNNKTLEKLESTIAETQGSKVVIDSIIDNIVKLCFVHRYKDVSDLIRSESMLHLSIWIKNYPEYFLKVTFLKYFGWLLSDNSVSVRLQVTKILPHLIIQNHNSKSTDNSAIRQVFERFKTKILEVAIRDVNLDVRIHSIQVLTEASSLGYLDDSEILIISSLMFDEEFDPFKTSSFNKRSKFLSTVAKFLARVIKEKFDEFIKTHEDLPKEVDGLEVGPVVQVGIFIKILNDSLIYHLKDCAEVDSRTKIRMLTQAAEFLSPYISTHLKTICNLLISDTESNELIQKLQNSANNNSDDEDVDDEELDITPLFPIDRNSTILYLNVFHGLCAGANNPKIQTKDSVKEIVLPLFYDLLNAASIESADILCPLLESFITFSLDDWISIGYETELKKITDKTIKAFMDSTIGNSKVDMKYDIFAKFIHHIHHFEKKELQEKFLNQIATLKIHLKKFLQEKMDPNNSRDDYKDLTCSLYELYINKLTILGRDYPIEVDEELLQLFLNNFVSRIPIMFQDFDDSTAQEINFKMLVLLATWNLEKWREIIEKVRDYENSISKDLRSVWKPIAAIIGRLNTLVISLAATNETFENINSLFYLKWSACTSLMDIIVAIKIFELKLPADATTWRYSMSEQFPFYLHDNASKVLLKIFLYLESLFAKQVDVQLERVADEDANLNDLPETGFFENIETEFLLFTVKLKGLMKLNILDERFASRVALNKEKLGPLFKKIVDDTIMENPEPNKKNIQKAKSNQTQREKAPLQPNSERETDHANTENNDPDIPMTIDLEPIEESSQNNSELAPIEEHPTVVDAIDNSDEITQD
Assay: co-IP; anti-HA immunoprecipitation of Scc3-6HA (wild type or mutant) from yeast lysates, mid-log cells; IPH150 or IPH50 buffer (50 mM Tris pH 8.0, 150/50 mM NaCl, 5 mM EDTA, 0.5% NP-40, 1 mM DTT), 4°C, protein A/G agarose, Western blot of partners; also in wpl1Δ strains and after depletion of Pds5-3V5-AID with 1 mM IAA

- binding: binds
Substance: Wpl1-3V5 (budding yeast)

No constants are given. Whether binding was seen depends on the method and setting. In cells and extracts the contact can be indirect. Binding calls can cover weak binding; strength is not graded here.
